Measurements as given in PMC4255431.
Results are given in words; binding and its absence hold for the method and conditions named. In cells and extracts the contact can be indirect. Some entries that bind do so weakly or less than the wild type.

By UniProt entry, the sequences of proteins in these tests, tags left out. Where a name states a change or a piece, a line headed by the entry shows the natural chain unless it says otherwise. Chains listed by the source or under a name are the forms on record and can include a tag or linker. Residues count along the entry.
UniProt Q13418: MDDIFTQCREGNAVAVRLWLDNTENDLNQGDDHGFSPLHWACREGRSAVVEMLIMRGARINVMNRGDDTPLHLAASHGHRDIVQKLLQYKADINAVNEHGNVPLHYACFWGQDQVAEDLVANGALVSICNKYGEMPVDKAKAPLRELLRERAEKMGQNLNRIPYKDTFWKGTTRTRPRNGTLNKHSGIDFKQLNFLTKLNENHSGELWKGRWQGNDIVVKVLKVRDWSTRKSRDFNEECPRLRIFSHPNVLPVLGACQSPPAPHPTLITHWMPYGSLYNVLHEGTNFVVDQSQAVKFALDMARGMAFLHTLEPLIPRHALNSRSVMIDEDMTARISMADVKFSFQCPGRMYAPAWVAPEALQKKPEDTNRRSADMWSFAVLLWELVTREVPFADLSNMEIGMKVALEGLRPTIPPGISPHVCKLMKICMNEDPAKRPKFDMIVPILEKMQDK
Flag-tagged N-terminal truncated ILK (ILK 171-452): residues 171-452 of Q13418
UniProt P46940: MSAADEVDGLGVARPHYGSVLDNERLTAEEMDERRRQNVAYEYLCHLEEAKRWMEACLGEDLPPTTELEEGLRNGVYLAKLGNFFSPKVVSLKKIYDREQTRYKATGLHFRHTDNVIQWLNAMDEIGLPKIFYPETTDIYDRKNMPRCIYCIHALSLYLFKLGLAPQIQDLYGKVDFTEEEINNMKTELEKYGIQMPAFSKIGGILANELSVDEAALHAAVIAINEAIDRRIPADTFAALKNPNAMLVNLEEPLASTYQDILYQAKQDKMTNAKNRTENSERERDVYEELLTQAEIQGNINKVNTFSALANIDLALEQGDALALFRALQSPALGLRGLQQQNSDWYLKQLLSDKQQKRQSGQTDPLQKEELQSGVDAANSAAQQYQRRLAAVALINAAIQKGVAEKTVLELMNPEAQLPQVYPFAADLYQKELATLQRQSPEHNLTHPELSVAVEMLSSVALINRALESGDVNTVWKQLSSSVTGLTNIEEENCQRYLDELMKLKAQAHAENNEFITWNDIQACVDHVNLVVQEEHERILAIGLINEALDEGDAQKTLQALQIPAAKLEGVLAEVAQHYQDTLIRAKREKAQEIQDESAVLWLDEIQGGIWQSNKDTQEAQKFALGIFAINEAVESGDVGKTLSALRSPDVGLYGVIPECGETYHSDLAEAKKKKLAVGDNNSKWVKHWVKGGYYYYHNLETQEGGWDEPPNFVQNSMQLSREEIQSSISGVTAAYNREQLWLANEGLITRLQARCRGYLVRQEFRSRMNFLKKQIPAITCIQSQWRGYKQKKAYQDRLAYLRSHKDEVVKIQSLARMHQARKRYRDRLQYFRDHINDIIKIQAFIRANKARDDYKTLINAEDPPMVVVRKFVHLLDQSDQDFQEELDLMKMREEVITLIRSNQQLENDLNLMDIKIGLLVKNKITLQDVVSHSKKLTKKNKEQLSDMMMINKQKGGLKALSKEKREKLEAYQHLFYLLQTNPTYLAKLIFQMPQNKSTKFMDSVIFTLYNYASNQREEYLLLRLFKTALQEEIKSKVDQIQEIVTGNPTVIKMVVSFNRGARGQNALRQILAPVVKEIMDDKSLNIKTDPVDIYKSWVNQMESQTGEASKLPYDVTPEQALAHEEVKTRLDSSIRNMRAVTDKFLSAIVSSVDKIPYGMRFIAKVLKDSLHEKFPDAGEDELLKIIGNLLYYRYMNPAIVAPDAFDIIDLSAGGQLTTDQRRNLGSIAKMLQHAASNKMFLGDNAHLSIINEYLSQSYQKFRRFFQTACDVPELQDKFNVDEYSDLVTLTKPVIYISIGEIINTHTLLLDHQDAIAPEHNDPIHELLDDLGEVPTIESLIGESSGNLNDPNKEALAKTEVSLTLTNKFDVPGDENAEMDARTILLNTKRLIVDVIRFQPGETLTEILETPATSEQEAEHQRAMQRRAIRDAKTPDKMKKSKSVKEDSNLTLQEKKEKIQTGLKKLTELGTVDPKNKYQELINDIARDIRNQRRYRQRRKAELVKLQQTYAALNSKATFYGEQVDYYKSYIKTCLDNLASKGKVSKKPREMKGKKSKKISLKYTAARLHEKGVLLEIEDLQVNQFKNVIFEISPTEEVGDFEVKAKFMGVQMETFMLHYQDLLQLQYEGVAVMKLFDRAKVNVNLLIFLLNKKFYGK

Columns and labels:
[1] = biological target: Integrin-linked kinase (ILK) (human (endogenous in AGS)) (UniProt Q13418); test: co-IP; lysates of untreated AGS cells; IP with control IgG or antibodies against ILK, IQGAP1 and Ras; immunoblots of ILK, IQGAP1 and Ras; 100 ug lysate, 2 ug antibody, protein G, overnight at 4°C
[2] = biological target: Flag-tagged N-terminal truncated ILK (ILK 171-452) (UniProt Q13418); test: co-IP; lysates of MKN45 cells transfected with pcDNA3.1-Flag-ILK constructs; coimmunoprecipitation of Flag, western blots of the indicated proteins
[3] = biological target: Flag-tagged full-length ILK (ILK 1-452) (UniProt Q13418); test: as above

Measured: binding

IQ motif-containing GTPase-activating protein 1 (IQGAP1) (from UniProt P46940 1-1657)
binds: all assays above
